Values from PubChem BioAssay AID1224826 (NIAID, 2016)
Here is a random part of about 17,000 reagents tested. About 1,110 of all reagents (6.6%) were called active. 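Active means lowered or raised reporter signal; replicate intensities are raw and not normalised per plate.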 A number with no mark means an inactive call. Reagent sequences are not shown.

- Purpose: 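Regulators of Tlr4 signalling leading to Tnf-alpha expression in macrophages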 (primary screen)
- Cell system: RAW264.7 G9 macrophages from mouse bearing reporters for p65 (GFP) and the Tnf promoter (mCherry)
- Reagents: siRNA pool against mouse genes, 100 nM
- Duration: 16 h of LPS stimulation, after 2 days of siRNA transfection
- Conditions: bacterial lipopolysaccharide (Salmonella minnesota R595), 10 ng/ml
- Measured: 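Imaged Tnf reporter mCherry in nuclei, minus background, normalised per plate to the median and expressed as robust z-scores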
- Scale: Tnf reporter robust z-score: higher = stronger Tnf promoter reporter signal after LPS; Tnf reporter intensity: higher = stronger Tnf promoter reporter signal
- Active means: 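a well counts as active at a score of -1.3 or below (Tlr4 knock-down control median) or above 3 (raised signal); controls and wells holding fewer than 50 cells are excluded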
- Calls: active = Tnf reporter clearly lowered or raised; inactive = no clear change in Tnf reporter

gene,Tnf reporter robust z-score,fewer than 50 cells in well,"Tnf reporter intensity, replicate 1","Tnf reporter intensity, replicate 2"
Gck (glucokinase),-0.74,enough cells in well,166,103
Rhoq (ras homolog family member Q),0.79,enough cells in well,367,275
Ppara (peroxisome proliferator activated receptor alpha),-0.8,enough cells in well,110,79.8
Xlr5c (X-linked lymphocyte-regulated 5C),0.71,enough cells in well,147,162
Snx10 (sorting nexin 10),-1.12,enough cells in well,69.1,41.9
Srd5a1 (steroid 5 alpha-reductase 1),-0.6,enough cells in well,207,185
Lrrc61 (leucine rich repeat containing 61),-0.35,enough cells in well,192,172
Tmem62 (transmembrane protein 62),-0.73,enough cells in well,158,154
Or4a69 (olfactory receptor family 4 subfamily A member 69),0.63,enough cells in well,222,168
B230325K18Rik (RIKEN cDNA B230325K18 gene),-0.12,enough cells in well,170,151
Ferd3l (Fer3 like bHLH transcription factor),-0.46,enough cells in well,173,140
Kdm5d (lysine demethylase 5D),-0.51,enough cells in well,179,95.2
Echdc1 (enoyl Coenzyme A hydratase domain containing 1),-0.16,enough cells in well,183,105
"Abcf1 (ATP-binding cassette, sub-family F member 1)",-1.14,enough cells in well,124,119
Rax (retina and anterior neural fold homeobox),0.85,enough cells in well,370,282
"Spred1 (sprouty protein with EVH-1 domain 1, related sequence)",1.98,enough cells in well,198,137
Pspn (persephin),0.06,enough cells in well,239,206
"Lamb3 (laminin, beta 3)",0.16,enough cells in well,262,152
Gm57858 (gene model 57858),0.46,enough cells in well,115,211
"Zmynd11 (zinc finger, MYND domain containing 11)",-0.48,enough cells in well,251,165
Idi2 (isopentenyl-diphosphate delta isomerase 2),0.38,enough cells in well,188,79.3
"Ctns (cystinosis, nephropathic)",0.27,enough cells in well,237,240
Or51q1c (olfactory receptor family 51 subfamily Q member 1C),1.48,enough cells in well,172,144
"Ubtf (upstream binding transcription factor, RNA polymerase I)",-0.7,enough cells in well,184,165
"Kcnk7 (potassium channel, subfamily K, member 7)",3.65 (active),enough cells in well,473,262
"Man2b1 (mannosidase 2, alpha B1)",-0.06,enough cells in well,267,194
Samm50 (SAMM50 sorting and assembly machinery component),-0.67,enough cells in well,210,57.8
Pira4 (paired-Ig-like receptor A4),0.85,enough cells in well,190,143
Fxyd4 (FXYD domain-containing ion transport regulator 4),-1.12,enough cells in well,150,63.6
Pdcd6ip (programmed cell death 6 interacting protein),0.13,enough cells in well,242,197
"Gucy1b1 (guanylate cyclase 1, soluble, beta 1)",0.22,enough cells in well,249,277
Gmeb2 (glucocorticoid modulatory element binding protein 2),-0.29,enough cells in well,201,162
Ccl11 (C-C motif chemokine ligand 11),1.34,enough cells in well,319,338
Coa6 (cytochrome c oxidase assembly factor 6),,fewer than 50 cells per well; well left out of calls,130,58.6
"Kti12 (KTI12 homolog, chromatin associated)",-0.22,enough cells in well,327,48
Ddx42 (DEAD box helicase 42),-1.1,enough cells in well,163,65.8
"Rab1b (RAB1B, member RAS oncogene family)",-0.97,enough cells in well,193,51.8
Sp3 (trans-acting transcription factor 3),0.23,enough cells in well,335,203
Vmp1 (vacuole membrane protein 1),1.34,enough cells in well,286,102
Rrh (retinal pigment epithelium derived rhodopsin homolog),-0.49,enough cells in well,221,75.2
Saxo2 (stabilizer of axonemal microtubules 2),0.52,enough cells in well,226,198
Slc38a2,,fewer than 50 cells per well; well left out of calls,111,87.6
C1galt1,0.88,enough cells in well,135,229
"Imp3 (IMP3, U3 small nucleolar ribonucleoprotein)",,fewer than 50 cells per well; well left out of calls,219,69.7
Taf12 (TATA-box binding protein associated factor 12),4.3 (active),enough cells in well,464,396
Pbk (PDZ binding kinase),2.49,enough cells in well,292,360
Ubr1 (ubiquitin protein ligase E3 component n-recognin 1),-0.7,enough cells in well,170,182
Cyyr1 (cysteine and tyrosine-rich protein 1),-0.36,enough cells in well,136,182
Mettl25 (methyltransferase like 25),0.88,enough cells in well,0,214
"Guf1 (GUF1 homolog, GTPase)",0.73,enough cells in well,172,236
Ergic3 (ERGIC and golgi 3),,fewer than 50 cells per well; well left out of calls,117,113
Triap1 (TP53 regulated inhibitor of apoptosis 1),0.36,enough cells in well,224,94.6
BC028528 (cDNA sequence BC028528),1.26,enough cells in well,277,185
"Cltrn (collectrin, amino acid transport regulator)",,fewer than 50 cells per well; well left out of calls,101,101
Prmt7 (protein arginine N-methyltransferase 7),0.46,enough cells in well,214,267
"Klra2 (killer cell lectin-like receptor, subfamily A, member 2)",-1.3 (active),enough cells in well,133,56.9
Ptk2 (PTK2 protein tyrosine kinase 2),1.72,enough cells in well,279,282
Gpr137 (G protein-coupled receptor 137),0.09,enough cells in well,212,322
